Values from PubChem BioAssay AID1259405 (NCATS, 2018).

Purpose: 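Silenced genes that increase secreted GFP made by CHO cells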 (primary screen)
Cell system: Chinese hamster CHO-K1 ovary cells with stable secreted eGFP expression
Reagents: single siRNA against mouse genes, 0.8 pmol siRNA per well (2 µl of 400 nM stock)
Duration: 3 days
Measurement: 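Percent of the per-plate non-targeting control median for intracellular GFP per well by laser scanning cytometry and for cell viability by ATP luminescence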
Reading the numbers: GFP, % of control: higher = more GFP per well, higher productivity; viability (ATP), % of control: higher = more viable cells (more ATP)
Call rule: 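a knock-down is called active if GFP reaches 120% or more of non-targeting control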
This is a random part of about 50,000 deposited reagents. In the full data, about 4,000 (8%) were called active. 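Mouse siRNA library applied to hamster cells; one well for each siRNA.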 Entries without a mark were called inactive.

gene symbol,PubChem SID,"GFP, % of control","viability (ATP), % of control"
Tmem150c (GeneID 231503),SID363547162,24.7,74.8
Tmem150c (GeneID 231503),SID363549974,68.6,77.3
Tmem150c (GeneID 231503),SID363588028,189 (active),160
Gprin3 (GeneID 243385),SID363547131,109,61.5
Gprin3 (GeneID 243385),SID363549943,78.1,91.8
Gprin3 (GeneID 243385),SID363587997,132 (active),124
Wsb1 (GeneID 78889),SID363556702,63,50.4
Wsb1 (GeneID 78889),SID363563606,101,68.5
Wsb1 (GeneID 78889),SID363587152,108,94.1
Zfp770 (GeneID 228491),SID363552276,62.1,64.8
Zfp770 (GeneID 228491),SID363585412,103,97.3
Zfp770 (GeneID 228491),SID363585763,108,111
Tfcp2l1 (GeneID 81879),SID363573718,52.6,102
Tfcp2l1 (GeneID 81879),SID363581462,49.4,45.1
Tfcp2l1 (GeneID 81879),SID363583926,107,116
Zbtb8os (GeneID 67106),SID363546792,180 (active),63.6
Zbtb8os (GeneID 67106),SID363548548,97.2,111
Zbtb8os (GeneID 67106),SID363560726,50,45.6
Ric3 (GeneID 320360),SID363539780,92.2,116
Ric3 (GeneID 320360),SID363561081,47.3,64
Ric3 (GeneID 320360),SID363565171,85.2,66
Xpo6 (GeneID 74204),SID363556746,69.8,66.5
Xpo6 (GeneID 74204),SID363563650,108,97.6
Xpo6 (GeneID 74204),SID363587196,78.1,94.3
Taf1b (GeneID 21340),SID363556449,105,67.9
Taf1b (GeneID 21340),SID363586899,106,130
Taf1b (GeneID 21340),SID363589007,99,126
Rundc3a (GeneID 51799),SID363545152,101,80.9
Rundc3a (GeneID 51799),SID363548665,96.3,90.9
Rundc3a (GeneID 51799),SID363562471,26,21.4
Fn3k (GeneID 63828),SID363581804,60.7,85.2
Fn3k (GeneID 63828),SID363589298,122 (active),94.5
Zdhhc2 (GeneID 70546),SID363556627,74.3,62.7
Zdhhc2 (GeneID 70546),SID363563531,62.8,70.3
Zdhhc2 (GeneID 70546),SID363587077,44.5,70
Or1o3 (GeneID 258503),SID363544795,46.9,48.1
Or1o3 (GeneID 258503),SID363551123,86.6,78.7
Or1o3 (GeneID 258503),SID363557672,30.5,30.1
Rab22a (GeneID 19334),SID363570316,55.5,96.7
Rab22a (GeneID 19334),SID363576652,88.9,101
Rab22a (GeneID 19334),SID363579820,86.8,86.2
Gvin-ps6 (GeneID 209380),SID363540209,80.7,92.7
Gvin-ps6 (GeneID 209380),SID363541961,72.4,100
Gvin-ps6 (GeneID 209380),SID363566877,164 (active),41.1
Sult1c1 (GeneID 20888),SID363545264,185 (active),137
Sult1c1 (GeneID 20888),SID363548777,79.2,97.7
Sult1c1 (GeneID 20888),SID363562583,63,65.6
Hsf4 (GeneID 26386),SID363573743,72.3,36.6
Hsf4 (GeneID 26386),SID363581487,90.9,63.8
Hsf4 (GeneID 26386),SID363583951,90.3,110
Sh2b3 (GeneID 16923),SID363540201,67.1,74.1
Sh2b3 (GeneID 16923),SID363541953,86.9,93.7
Sh2b3 (GeneID 16923),SID363566869,145 (active),94.4
Ddx39b (GeneID 53817),SID363569680,103,76
Ddx39b (GeneID 53817),SID363576720,59.3,59.7
Ddx39b (GeneID 53817),SID363578128,60.1,82.5
Efcab14 (GeneID 230648),SID363542344,75.3,70.7
Efcab14 (GeneID 230648),SID363551835,63.6,70.7
Efcab14 (GeneID 230648),SID363559440,94.6,84.4

Only “GFP, % of control” (4 entries from above):
Rundc3a (GeneID 51799) [SID363562471] = 26
Fn3k (GeneID 63828) [SID363581804] = 60.7
Fn3k (GeneID 63828) [SID363589298] = 122 (active)
Zdhhc2 (GeneID 70546) [SID363556627] = 74.3
